Test results taken from paper PMC7819943, “Rice protein-binding microarrays: a tool to detect cis-acting elements near promoter regions in rice”.
Some of the results follow.

Molecular target: T1, OsSMF1 (Oryza sativa, UniProt Q6ZLB0 1-436)
T1 sequence: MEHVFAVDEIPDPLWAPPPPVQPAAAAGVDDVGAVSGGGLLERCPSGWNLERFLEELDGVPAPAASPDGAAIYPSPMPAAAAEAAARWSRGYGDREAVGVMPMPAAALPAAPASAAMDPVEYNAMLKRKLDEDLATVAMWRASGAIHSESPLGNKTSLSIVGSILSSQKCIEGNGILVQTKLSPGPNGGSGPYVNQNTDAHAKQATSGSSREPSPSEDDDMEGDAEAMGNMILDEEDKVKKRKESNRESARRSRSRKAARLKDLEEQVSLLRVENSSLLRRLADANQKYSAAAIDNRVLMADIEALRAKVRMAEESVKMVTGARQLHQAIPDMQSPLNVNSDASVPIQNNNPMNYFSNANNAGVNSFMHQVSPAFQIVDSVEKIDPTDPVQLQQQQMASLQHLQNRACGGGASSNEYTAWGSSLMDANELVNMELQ
Assay: protein-binding microarray (RPBM); PBS, 2% BSA, 51.3 ng/ul salmon testes DNA, 50 uM zinc acetate, 200 nM TF, 25 C, 1 h; high values mean tight binding
Conditions: protein: recombinant; tags: N-terminal polyhistidine and DsRed monomer fusion (pET32a); chain copies: 2; label: CyDye5-dUTP incorporated in the synthesized complementary strand; 3' TTTTT single-stranded linker to array surface; dsDNA, one strand shown
Method in brief: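 A custom Agilent array was converted to double-stranded form by primer extension with Cy5-dUTP and blocked with 2% BSA. Protein at 200 nM in PBS with 2% BSA, salmon testes DNA and 50 µM zinc acetate was applied for 1 h at 25 °C, followed by washing. The proteins were polyhistidine–DsRed N-terminal fusions of transcription factors, expressed in E. coli BL21-CodonPlus and Ni–NTA-purified. The binding signal is per-feature fluorescence intensity (arbitrary units) from an Axon 4000B scanner.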

**Q.** For “CCTCAGTCCCGCCGCCACCGCCACCGCCACCACTACCACTCGGAGTCACCTAGTGCAG”, which binding signal is on record?
**A.** 3800 fluorescence intensity (a.u.)

**Q.** With “CCGTTCTCTCTTCGTAGCCTGCGTGGCCTTGCCCCTTCGCCGGAGTCACCTAGTGCAG” as the sequence, how does the binding signal read?
**A.** 3770 fluorescence intensity (a.u.)

**Q.** With “AGCCAGCTGCAGCACGGACTCCAAGACATAATGTGTGTATCGGAGTCACCTAGTGCAG” as the sequence, how does the binding signal read?
**A.** 3880 fluorescence intensity (a.u.)

**Q.** For “GGGTTGACGTCAGGCTCGGCCCGGCCCTCCCCAGCCCATTCGGAGTCACCTAGTGCAG”, which binding signal is on record?
**A.** 5660 fluorescence intensity (a.u.)

**Q.** “AAAATTAAACGACATTCCCCGAGAGCACCGCCCCGTCAAGCGGAGTCACCTAGTGCAG” was tested. Which binding signal did it give?
**A.** 30500 fluorescence intensity (a.u.)

**Q.** For “AATAATTTTGTGTTCGCTATTGGAGGGTACACTAAGTTGACGGAGTCACCTAGTGCAG”, which binding signal is on record?
**A.** 25300 fluorescence intensity (a.u.)

**Q.** Which binding signal does the source give for “AATGGAAATATCTGATGATTTACGTCAGCGAAATTGTTGTCGGAGTCACCTAGTGCAG” here?
**A.** 7300 fluorescence intensity (a.u.)

**Q.** With “CGTTGCCGCCATCACAGTCACTATCATGGCCAGATCCATCCGGAGTCACCTAGTGCAG” as the sequence, how does the binding signal read?
**A.** 3710 fluorescence intensity (a.u.)

**Q.** For “ATGATATAATAACGATGACAATATCTTACTAGCAAATCATCGGAGTCACCTAGTGCAG”, which binding signal is on record?
**A.** 30000 fluorescence intensity (a.u.)

**Q.** With “TTATCTTTTACGGGGAGGAGACACGTCGACTCGTGAATATCGGAGTCACCTAGTGCAG” as the sequence, how does the binding signal read?
**A.** 7690 fluorescence intensity (a.u.)

**Q.** “ATGGCGGAGGATGAGTCGGCGTCGTGGTTTCAGTACCCGGCGGAGTCACCTAGTGCAG” was tested. Which binding signal did it give?
**A.** 4180 fluorescence intensity (a.u.)

**Q.** “TCTTCTTTAAAAGCAGGAGTAGATCTTGGATCCTTCGAGTCGGAGTCACCTAGTGCAG” was tested. Which binding signal did it give?
**A.** 16900 fluorescence intensity (a.u.)

**Q.** With “CCGCACCGGGCACACCGTGTCGATCATCGTCGTCATCCCCCGGAGTCACCTAGTGCAG” as the sequence, how does the binding signal read?
**A.** 4050 fluorescence intensity (a.u.)

**Q.** Which binding signal does the source give for “ATTTTATTGCCACATAAGCGCCACGTCAATGCCACGTGGGCGGAGTCACCTAGTGCAG” here?
**A.** 56000 fluorescence intensity (a.u.)

**Q.** Which binding signal does the source give for “GATAAGCAACCAAGCCAGGTCACTCTCCTCTACTACATCCCGGAGTCACCTAGTGCAG” here?
**A.** 5800 fluorescence intensity (a.u.)

**Q.** Which binding signal does the source give for “CATGTACTCCCGTCCAGGCGTCCGCGTCATCGCGTATCGCCGGAGTCACCTAGTGCAG” here?
**A.** 8520 fluorescence intensity (a.u.)

**Q.** With “CGTCGGTTTGCTGAATCAGCAAAAGCCGACCACCGACCCCCGGAGTCACCTAGTGCAG” as the sequence, how does the binding signal read?
**A.** 6910 fluorescence intensity (a.u.)

**Q.** “AACCTAAACCAATTAGGCCCCGTTCTTTCACGATTAAGATCGGAGTCACCTAGTGCAG” was tested. Which binding signal did it give?
**A.** 22900 fluorescence intensity (a.u.)

**Q.** “AAGGATCGACGAGCCGACACGTCGGTCTCATTCGATGGGCCGGAGTCACCTAGTGCAG” was tested. Which binding signal did it give?
**A.** 4820 fluorescence intensity (a.u.)

**Q.** Which binding signal does the source give for “GCGGCGACGACCACGCCGGCGGTGACGAAGCCATGACCACCGGAGTCACCTAGTGCAG” here?
**A.** 5780 fluorescence intensity (a.u.)

**Q.** “TCCCAGGTGGATGGTGAATTGGTGATCTGTGTCAGTTCATCGGAGTCACCTAGTGCAG” was tested. Which binding signal did it give?
**A.** 3510 fluorescence intensity (a.u.)

**Q.** How did the binding signal turn out when “GCGTGGACGCGGCCGGGGCGCGACACGTCAACAGGCTCTGCGGAGTCACCTAGTGCAG” was run?
**A.** 13100 fluorescence intensity (a.u.)

**Q.** How did the binding signal turn out when “TCCACCTGACGGGCCGGAGCCTGACGCGGGCCGCGGGGAACGGAGTCACCTAGTGCAG” was run?
**A.** 3190 fluorescence intensity (a.u.)

**Q.** “TCCTTTCCCTAGCCACCTCACACACCATCTGCTTGCATCTCGGAGTCACCTAGTGCAG” was tested. Which binding signal did it give?
**A.** 6270 fluorescence intensity (a.u.)

**Q.** For “ACTAAGCTGCCACGTGGATGCCACGTCAGCGAAAACCACCCGGAGTCACCTAGTGCAG”, which binding signal is on record?
**A.** 61800 fluorescence intensity (a.u.)

**Q.** For “TCCTAACCCATCCAACTCATCTATATAAGCTCCAACCATTCGGAGTCACCTAGTGCAG”, which binding signal is on record?
**A.** 4330 fluorescence intensity (a.u.)

**Q.** For “ACGAACTTAAAAGTTGACTCATACATGGATGACGTAACAACGGAGTCACCTAGTGCAG”, which binding signal is on record?
**A.** 3890 fluorescence intensity (a.u.)

**Q.** How did the binding signal turn out when “ACCCTCCCGCGACCGCCGCGTGTATGCGCCGCCGTCGCCGCGGAGTCACCTAGTGCAG” was run?
**A.** 4360 fluorescence intensity (a.u.)

**Q.** With “GATTCATTTGCCACGTCAATGCCACGTTGGACGAGGACCTCGGAGTCACCTAGTGCAG” as the sequence, how does the binding signal read?
**A.** 37700 fluorescence intensity (a.u.)

**Q.** For “GGGCTTCTGTTGGGGCCGATCCAGTTGTCGGGCCTCATGACGGAGTCACCTAGTGCAG”, which binding signal is on record?
**A.** 3830 fluorescence intensity (a.u.)

**Q.** “ACAAAGGAGAAGAAGCCATGATGTGGAGTTGGCCGGTGGCCGGAGTCACCTAGTGCAG” was tested. Which binding signal did it give?
**A.** 3800 fluorescence intensity (a.u.)

**Q.** How did the binding signal turn out when “AGGATCCCGTACGTGGAGTATGCGAACGCCGCATCGCTCTCGGAGTCACCTAGTGCAG” was run?
**A.** 4650 fluorescence intensity (a.u.)

**Q.** How did the binding signal turn out when “GGCTATCAGATATGCCGACGTTATCAACTCTGTTGTCCTGCGGAGTCACCTAGTGCAG” was run?
**A.** 3380 fluorescence intensity (a.u.)

**Q.** “ACGTACGTGTCGTTCTTGACTATTTCTAGCCGGCCAATCTCGGAGTCACCTAGTGCAG” was tested. Which binding signal did it give?
**A.** 5510 fluorescence intensity (a.u.)

**Q.** With “AAAGCTGACCTATCTTGATCTCCACAACAACAGCCTCACTCGGAGTCACCTAGTGCAG” as the sequence, how does the binding signal read?
**A.** 3550 fluorescence intensity (a.u.)

**Q.** How did the binding signal turn out when “TTCCAAATCTACTTTGACGGTATTTATGGAATCAGACATTCGGAGTCACCTAGTGCAG” was run?
**A.** 25400 fluorescence intensity (a.u.)

**Q.** With “AAAGCTTAACTGGCTAGGTTTCTTACAGTGAAACTAATCACGGAGTCACCTAGTGCAG” as the sequence, how does the binding signal read?
**A.** 38900 fluorescence intensity (a.u.)

**Q.** “CGTTACCGCTTTCATCACTGCCTCCGTCACGCGCTGCCTACGGAGTCACCTAGTGCAG” was tested. Which binding signal did it give?
**A.** 4310 fluorescence intensity (a.u.)

**Q.** How did the binding signal turn out when “GCCGATTGCAATTTCGTCATCACTGCGGTTAGGATTACACCGGAGTCACCTAGTGCAG” was run?
**A.** 4340 fluorescence intensity (a.u.)

**Q.** “ATTGTGTTATATGACTTGGCACATCTTTCTTATTTTGAATCGGAGTCACCTAGTGCAG” was tested. Which binding signal did it give?
**A.** 6740 fluorescence intensity (a.u.)

**Q.** With “ACCCAGCTGATACCGTACGTACACTTGTGGTCAATGATCACGGAGTCACCTAGTGCAG” as the sequence, how does the binding signal read?
**A.** 3650 fluorescence intensity (a.u.)

**Q.** For “GCAACTTCCGTCCATCCGCAACTACTGTATACGTGTATACCGGAGTCACCTAGTGCAG”, which binding signal is on record?
**A.** 8870 fluorescence intensity (a.u.)
